# Test results from the supplement of paper PMC12823440, “Inhibitors supercharge kinase turnover through native proteolytic circuits” (Nature, 2025).
# Sequences of proteins named here, by UniProt entry; tags and fusion partners are left off. A change or cut given only in a name is not applied to a line headed by its entry.
# UniProt Q06187: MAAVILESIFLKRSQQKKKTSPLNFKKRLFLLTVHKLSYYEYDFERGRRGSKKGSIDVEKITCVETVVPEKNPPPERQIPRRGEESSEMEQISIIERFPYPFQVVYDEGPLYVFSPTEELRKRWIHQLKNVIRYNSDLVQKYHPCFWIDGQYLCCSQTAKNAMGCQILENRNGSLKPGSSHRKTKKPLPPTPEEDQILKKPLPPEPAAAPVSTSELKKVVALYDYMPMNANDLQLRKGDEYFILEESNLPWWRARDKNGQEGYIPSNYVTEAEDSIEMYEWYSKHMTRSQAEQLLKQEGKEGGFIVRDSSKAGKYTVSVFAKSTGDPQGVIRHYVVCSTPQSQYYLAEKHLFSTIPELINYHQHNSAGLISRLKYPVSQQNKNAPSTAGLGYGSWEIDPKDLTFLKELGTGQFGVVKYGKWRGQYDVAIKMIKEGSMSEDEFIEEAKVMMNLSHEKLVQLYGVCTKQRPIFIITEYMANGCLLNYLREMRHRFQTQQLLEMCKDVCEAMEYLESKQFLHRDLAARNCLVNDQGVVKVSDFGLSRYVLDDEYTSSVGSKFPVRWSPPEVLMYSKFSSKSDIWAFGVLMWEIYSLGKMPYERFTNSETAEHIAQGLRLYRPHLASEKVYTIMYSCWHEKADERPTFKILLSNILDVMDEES
# UniProt Q9UQM7, whole entry: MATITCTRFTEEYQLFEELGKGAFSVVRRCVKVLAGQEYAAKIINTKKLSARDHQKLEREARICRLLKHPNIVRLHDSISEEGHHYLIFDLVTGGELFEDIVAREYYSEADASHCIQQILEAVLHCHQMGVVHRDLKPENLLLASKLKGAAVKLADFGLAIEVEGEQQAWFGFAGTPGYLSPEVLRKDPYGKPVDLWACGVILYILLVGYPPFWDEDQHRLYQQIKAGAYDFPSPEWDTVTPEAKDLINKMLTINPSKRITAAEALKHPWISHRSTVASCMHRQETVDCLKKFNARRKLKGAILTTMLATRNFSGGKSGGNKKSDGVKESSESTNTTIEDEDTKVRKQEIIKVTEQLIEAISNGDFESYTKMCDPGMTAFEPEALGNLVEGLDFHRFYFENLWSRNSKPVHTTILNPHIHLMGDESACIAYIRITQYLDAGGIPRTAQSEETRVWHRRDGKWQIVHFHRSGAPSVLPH
# UniProt Q13555: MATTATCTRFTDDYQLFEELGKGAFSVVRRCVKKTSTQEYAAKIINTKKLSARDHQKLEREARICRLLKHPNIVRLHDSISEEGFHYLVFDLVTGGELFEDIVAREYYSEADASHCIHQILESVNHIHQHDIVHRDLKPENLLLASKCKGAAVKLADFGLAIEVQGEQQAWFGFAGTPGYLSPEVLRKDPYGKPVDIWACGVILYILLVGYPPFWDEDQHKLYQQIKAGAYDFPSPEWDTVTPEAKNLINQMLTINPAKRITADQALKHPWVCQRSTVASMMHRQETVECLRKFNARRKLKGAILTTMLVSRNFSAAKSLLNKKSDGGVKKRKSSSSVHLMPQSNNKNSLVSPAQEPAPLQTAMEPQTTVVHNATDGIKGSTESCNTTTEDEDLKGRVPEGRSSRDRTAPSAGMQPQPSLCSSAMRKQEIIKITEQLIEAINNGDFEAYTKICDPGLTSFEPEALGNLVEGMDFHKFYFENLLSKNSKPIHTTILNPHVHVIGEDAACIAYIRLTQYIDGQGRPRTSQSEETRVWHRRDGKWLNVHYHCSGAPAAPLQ
# UniProt Q15131: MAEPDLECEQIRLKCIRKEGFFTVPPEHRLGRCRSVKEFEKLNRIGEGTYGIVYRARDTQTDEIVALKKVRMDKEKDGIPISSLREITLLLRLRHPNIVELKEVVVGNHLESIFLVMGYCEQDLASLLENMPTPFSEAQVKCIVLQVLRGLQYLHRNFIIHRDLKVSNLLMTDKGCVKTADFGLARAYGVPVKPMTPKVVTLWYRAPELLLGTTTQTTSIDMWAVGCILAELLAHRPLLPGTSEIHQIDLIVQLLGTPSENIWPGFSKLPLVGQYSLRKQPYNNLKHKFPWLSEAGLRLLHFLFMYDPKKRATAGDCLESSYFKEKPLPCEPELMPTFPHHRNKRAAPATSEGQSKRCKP
# UniProt Q00526: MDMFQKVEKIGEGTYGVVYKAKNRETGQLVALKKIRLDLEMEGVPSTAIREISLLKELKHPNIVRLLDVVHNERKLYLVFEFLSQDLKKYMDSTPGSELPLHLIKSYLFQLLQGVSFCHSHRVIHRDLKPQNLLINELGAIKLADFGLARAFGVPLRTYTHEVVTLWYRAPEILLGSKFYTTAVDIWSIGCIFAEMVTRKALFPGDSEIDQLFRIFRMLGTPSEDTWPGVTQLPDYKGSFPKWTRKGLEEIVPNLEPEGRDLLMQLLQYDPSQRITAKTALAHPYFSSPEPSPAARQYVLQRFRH
# UniProt P11802: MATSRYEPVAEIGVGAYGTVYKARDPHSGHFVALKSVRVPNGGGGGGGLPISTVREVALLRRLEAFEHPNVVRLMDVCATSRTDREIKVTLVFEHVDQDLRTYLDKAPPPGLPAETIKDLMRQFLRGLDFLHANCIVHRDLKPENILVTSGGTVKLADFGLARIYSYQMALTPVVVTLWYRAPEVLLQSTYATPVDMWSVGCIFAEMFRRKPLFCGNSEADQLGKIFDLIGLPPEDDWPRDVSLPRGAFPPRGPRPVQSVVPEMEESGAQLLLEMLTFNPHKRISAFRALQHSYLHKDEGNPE
# UniProt Q00535, whole entry, looked up: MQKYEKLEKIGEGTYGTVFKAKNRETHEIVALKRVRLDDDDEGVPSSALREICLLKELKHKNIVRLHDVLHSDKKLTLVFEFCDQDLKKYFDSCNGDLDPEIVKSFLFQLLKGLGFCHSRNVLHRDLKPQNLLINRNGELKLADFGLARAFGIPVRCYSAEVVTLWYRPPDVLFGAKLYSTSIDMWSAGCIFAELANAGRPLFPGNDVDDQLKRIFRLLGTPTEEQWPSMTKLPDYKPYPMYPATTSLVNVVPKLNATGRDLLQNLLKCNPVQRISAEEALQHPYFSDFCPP
# UniProt P50750, whole entry: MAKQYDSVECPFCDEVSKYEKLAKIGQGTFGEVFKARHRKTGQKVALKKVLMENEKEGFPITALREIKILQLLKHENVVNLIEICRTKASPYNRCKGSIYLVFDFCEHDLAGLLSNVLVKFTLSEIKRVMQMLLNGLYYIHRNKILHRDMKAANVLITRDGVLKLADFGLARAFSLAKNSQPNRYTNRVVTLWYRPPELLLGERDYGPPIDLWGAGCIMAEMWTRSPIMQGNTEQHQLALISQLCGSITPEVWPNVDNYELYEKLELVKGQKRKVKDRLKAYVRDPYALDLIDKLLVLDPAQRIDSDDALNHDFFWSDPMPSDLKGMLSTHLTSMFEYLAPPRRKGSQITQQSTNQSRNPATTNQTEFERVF
# UniProt O96017, whole entry: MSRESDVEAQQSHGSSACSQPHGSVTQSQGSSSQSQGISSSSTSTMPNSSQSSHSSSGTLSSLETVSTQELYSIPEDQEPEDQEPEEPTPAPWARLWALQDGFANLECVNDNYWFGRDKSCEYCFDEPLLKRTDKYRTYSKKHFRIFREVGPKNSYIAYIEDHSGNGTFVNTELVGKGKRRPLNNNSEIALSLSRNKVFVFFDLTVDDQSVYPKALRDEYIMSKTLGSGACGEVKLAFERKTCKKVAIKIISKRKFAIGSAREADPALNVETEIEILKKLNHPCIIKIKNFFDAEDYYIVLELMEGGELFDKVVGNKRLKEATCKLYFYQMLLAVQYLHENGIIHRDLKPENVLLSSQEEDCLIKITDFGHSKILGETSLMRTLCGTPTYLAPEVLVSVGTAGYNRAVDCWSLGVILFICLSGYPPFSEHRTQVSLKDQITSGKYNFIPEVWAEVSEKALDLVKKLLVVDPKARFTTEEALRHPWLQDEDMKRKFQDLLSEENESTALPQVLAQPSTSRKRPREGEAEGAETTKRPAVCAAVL
# UniProt P41240: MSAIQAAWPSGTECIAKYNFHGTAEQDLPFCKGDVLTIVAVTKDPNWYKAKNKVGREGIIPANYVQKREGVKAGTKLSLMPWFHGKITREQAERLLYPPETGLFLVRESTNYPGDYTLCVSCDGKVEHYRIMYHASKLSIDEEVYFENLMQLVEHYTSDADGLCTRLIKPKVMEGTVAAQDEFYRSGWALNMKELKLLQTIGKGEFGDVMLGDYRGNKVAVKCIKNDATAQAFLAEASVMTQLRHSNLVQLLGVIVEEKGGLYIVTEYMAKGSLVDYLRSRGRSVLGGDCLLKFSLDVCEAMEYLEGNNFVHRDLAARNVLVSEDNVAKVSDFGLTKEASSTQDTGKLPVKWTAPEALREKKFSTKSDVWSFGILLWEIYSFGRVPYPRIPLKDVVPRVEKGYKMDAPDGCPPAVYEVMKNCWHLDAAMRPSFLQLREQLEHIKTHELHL
# UniProt P48729: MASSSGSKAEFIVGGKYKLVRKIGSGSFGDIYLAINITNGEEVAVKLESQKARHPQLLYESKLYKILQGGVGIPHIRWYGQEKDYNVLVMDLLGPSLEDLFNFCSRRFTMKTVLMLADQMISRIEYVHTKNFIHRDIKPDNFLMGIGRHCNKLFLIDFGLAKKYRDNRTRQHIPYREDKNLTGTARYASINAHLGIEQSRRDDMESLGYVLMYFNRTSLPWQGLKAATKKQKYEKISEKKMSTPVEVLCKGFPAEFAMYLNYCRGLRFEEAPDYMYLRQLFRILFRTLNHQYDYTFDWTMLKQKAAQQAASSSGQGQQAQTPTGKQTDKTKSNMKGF
# UniProt P48730: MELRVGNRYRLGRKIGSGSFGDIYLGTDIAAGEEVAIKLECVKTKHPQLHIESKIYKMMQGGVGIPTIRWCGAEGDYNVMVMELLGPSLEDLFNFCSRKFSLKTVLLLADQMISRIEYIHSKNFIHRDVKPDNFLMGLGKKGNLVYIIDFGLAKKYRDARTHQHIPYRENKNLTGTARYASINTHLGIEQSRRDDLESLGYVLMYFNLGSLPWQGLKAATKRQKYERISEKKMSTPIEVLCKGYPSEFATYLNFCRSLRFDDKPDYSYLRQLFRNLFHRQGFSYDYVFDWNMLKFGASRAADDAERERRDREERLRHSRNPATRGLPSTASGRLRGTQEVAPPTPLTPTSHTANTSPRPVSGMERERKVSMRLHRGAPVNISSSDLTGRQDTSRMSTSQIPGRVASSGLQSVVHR
# UniProt Q08345: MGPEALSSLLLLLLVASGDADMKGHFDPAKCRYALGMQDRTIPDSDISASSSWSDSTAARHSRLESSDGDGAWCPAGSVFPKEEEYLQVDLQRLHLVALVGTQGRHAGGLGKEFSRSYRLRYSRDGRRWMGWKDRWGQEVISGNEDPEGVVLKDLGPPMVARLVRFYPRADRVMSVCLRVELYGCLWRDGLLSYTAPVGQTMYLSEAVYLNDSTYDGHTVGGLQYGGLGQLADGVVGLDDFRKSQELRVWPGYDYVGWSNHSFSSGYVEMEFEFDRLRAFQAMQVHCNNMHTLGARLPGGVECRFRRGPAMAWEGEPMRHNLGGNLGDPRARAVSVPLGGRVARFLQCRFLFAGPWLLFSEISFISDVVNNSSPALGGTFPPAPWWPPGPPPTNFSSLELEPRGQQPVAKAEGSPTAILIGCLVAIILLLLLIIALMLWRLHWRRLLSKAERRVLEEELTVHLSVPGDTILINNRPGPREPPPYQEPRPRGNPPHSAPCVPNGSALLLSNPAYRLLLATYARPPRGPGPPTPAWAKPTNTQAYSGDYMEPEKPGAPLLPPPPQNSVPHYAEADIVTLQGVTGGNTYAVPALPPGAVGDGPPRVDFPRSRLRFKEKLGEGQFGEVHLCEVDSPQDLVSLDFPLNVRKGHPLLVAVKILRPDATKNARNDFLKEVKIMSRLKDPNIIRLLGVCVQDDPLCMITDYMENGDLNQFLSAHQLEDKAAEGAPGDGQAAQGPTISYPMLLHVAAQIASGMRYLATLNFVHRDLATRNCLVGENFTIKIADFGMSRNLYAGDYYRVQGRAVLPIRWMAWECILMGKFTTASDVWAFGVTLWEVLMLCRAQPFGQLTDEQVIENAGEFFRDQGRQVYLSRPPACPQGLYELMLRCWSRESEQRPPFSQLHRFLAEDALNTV
# UniProt Q92630: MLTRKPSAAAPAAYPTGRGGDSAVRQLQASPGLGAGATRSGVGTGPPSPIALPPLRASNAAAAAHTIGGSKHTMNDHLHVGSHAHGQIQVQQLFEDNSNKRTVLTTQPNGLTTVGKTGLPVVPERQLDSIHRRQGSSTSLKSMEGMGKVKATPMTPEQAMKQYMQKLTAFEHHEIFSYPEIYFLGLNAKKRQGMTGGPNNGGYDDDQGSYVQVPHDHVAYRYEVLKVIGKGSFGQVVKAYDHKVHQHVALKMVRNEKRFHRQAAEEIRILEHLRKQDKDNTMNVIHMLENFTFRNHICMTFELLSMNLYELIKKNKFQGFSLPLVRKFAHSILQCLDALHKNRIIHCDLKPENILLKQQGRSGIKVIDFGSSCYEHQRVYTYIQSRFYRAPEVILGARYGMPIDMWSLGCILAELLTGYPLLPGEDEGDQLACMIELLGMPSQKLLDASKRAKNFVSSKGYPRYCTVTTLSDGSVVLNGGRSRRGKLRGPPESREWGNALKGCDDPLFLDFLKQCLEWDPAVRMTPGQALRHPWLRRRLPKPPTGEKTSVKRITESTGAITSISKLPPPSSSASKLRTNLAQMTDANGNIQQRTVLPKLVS
# The list shows a part of the results. The calls rarely recur for the same compound in another form.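 In K562 cells expressing nanoluciferase-fused kinases, luminescence was recorded at 4 h intervals between 2 and 18 h, normalized as percent of control with DMSO at 100% and a positive control at 0%. A significant (2 sigma) signal drop marks a time point as decreased. The authors' rule for a hit is not shown and takes in more than the number of time points.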
# Key:
# Assay in all cases: kinase-Nluc reporter destabilization hit call (1 = scored as downregulated) (binary); higher = compound decreases kinase abundance
# Details in all cases: K562; 2-18 h
# [1] = system: BRAF_V600E
# [2] = molecular target: BTK (UniProt Q06187)
# [3] = molecular target: CAMK2A (UniProt Q9UQM7)
# [4] = molecular target: CAMK2G (UniProt Q13555)
# [5] = molecular target: CDK10 (UniProt Q15131)
# [6] = molecular target: CDK2 (UniProt P24941)
# [7] = molecular target: CDK3 (UniProt Q00526)
# [8] = molecular target: CDK4 (UniProt P11802)
# [9] = molecular target: CDK5 (UniProt Q00535)
# [10] = molecular target: CDK6 (UniProt Q00534)
# [11] = molecular target: CDK7 (UniProt P50613)
# [12] = molecular target: CDK9 (UniProt P50750)
# [13] = molecular target: CHEK2 (UniProt O96017)
# [14] = molecular target: CSF1R (UniProt P07333)
# [15] = molecular target: CSK (UniProt P41240)
# [16] = molecular target: CSNK1A1 (UniProt P48729)
# [17] = molecular target: CSNK1D (UniProt P48730)
# [18] = molecular target: DDR1 (UniProt Q08345)
# [19] = molecular target: DYRK1B (UniProt Q9Y463)
# [20] = molecular target: DYRK2 (UniProt Q92630)
SMILES,kinase-Nluc reporter destabilization hit call [1],kinase-Nluc reporter destabilization hit call [2],kinase-Nluc reporter destabilization hit call [3],kinase-Nluc reporter destabilization hit call [4],kinase-Nluc reporter destabilization hit call [5],kinase-Nluc reporter destabilization hit call [6],kinase-Nluc reporter destabilization hit call [7],kinase-Nluc reporter destabilization hit call [8],kinase-Nluc reporter destabilization hit call [9],kinase-Nluc reporter destabilization hit call [10],kinase-Nluc reporter destabilization hit call [11],kinase-Nluc reporter destabilization hit call [12],kinase-Nluc reporter destabilization hit call [13],kinase-Nluc reporter destabilization hit call [14],kinase-Nluc reporter destabilization hit call [15],kinase-Nluc reporter destabilization hit call [16],kinase-Nluc reporter destabilization hit call [17],kinase-Nluc reporter destabilization hit call [18],kinase-Nluc reporter destabilization hit call [19],kinase-Nluc reporter destabilization hit call [20]
CC(Sc1nc2c(cnn2-c2cccc(Cl)c2)c(=O)[nH]1)C(N)=O (stereo not given) (10 µM),inactive: 0,inactive: 0,inactive: 0,inactive: 0,inactive: 0,inactive: 0,inactive: 0,inactive: 0,inactive: 0,inactive: 0,inactive: 0,inactive: 0,inactive: 0,inactive: 0,inactive: 0,inactive: 0,inactive: 0,inactive: 0,inactive: 0,inactive: 0
CC(C)CCN1c2nc(Nc3cc(F)c(O)c(F)c3)ncc2N(C)C(=O)C1C (stereo not given) (2.5 µM),inactive: 0,inactive: 0,inactive: 0,inactive: 0,inactive: 0,inactive: 0,inactive: 0,inactive: 0,inactive: 0,inactive: 0,inactive: 0,inactive: 0,inactive: 0,inactive: 0,inactive: 0,inactive: 0,inactive: 0,inactive: 0,inactive: 0,inactive: 0
C=CC(=O)Nc1ccc(C(=O)Nc2[nH]nc3c2CN(C(=O)N[C@H](CN(C)C)c2ccccc2)C3(C)C)cc1 (10 µM),active: 1,inactive: 0,inactive: 0,inactive: 0,inactive: 0,inactive: 0,inactive: 0,inactive: 0,inactive: 0,inactive: 0,inactive: 0,inactive: 0,inactive: 0,inactive: 0,inactive: 0,inactive: 0,inactive: 0,inactive: 0,inactive: 0,inactive: 0
COCCOCCc1c(C)c2cc(OC)c(O)c(C=O)c2oc1=O (10 µM),inactive: 0,inactive: 0,inactive: 0,inactive: 0,inactive: 0,inactive: 0,inactive: 0,inactive: 0,inactive: 0,inactive: 0,inactive: 0,inactive: 0,inactive: 0,inactive: 0,inactive: 0,inactive: 0,inactive: 0,inactive: 0,inactive: 0,inactive: 0
C=CC(=O)N1CCN(C(=O)CNc2cc(I)c(Cl)cc2O)CC1 [K-Ras(G12C) inhibitor 12] (10 µM),inactive: 0,inactive: 0,inactive: 0,inactive: 0,inactive: 0,inactive: 0,inactive: 0,inactive: 0,inactive: 0,inactive: 0,inactive: 0,inactive: 0,inactive: 0,inactive: 0,inactive: 0,inactive: 0,inactive: 0,inactive: 0,inactive: 0,inactive: 0
Cn1c(=O)c2c(nc(S(C)(=O)=O)n2C)n(CC#Cc2cccc(O)c2)c1=O (2.5 µM),inactive: 0,inactive: 0,inactive: 0,inactive: 0,inactive: 0,inactive: 0,inactive: 0,inactive: 0,inactive: 0,inactive: 0,inactive: 0,inactive: 0,inactive: 0,inactive: 0,inactive: 0,inactive: 0,inactive: 0,inactive: 0,inactive: 0,inactive: 0
COc1ccc(Br)cc1NC(=O)Nc1cccc2c1ccn2Cc1ccnc(N)c1 (2.5 µM),inactive: 0,inactive: 0,inactive: 0,inactive: 0,inactive: 0,inactive: 0,inactive: 0,inactive: 0,inactive: 0,inactive: 0,inactive: 0,inactive: 0,inactive: 0,inactive: 0,inactive: 0,inactive: 0,inactive: 0,inactive: 0,inactive: 0,inactive: 0
c1nn(C2CCOCC2)cc1Nc1ncc2nnn(-c3ccc4cn[nH]c4c3)c2n1 (10 µM),inactive: 0,inactive: 0,inactive: 0,inactive: 0,inactive: 0,inactive: 0,inactive: 0,inactive: 0,inactive: 0,inactive: 0,inactive: 0,inactive: 0,inactive: 0,inactive: 0,inactive: 0,inactive: 0,inactive: 0,inactive: 0,inactive: 0,inactive: 0
Cc1ccc(NC(=O)Nc2cc(C(F)(F)F)ccc2F)cc1Nc1ccc2c(c1)NC(=O)/C2=C\c1ccc[nH]1 (2.5 µM),inactive: 0,inactive: 0,inactive: 0,inactive: 0,inactive: 0,inactive: 0,inactive: 0,inactive: 0,inactive: 0,inactive: 0,inactive: 0,inactive: 0,inactive: 0,inactive: 0,inactive: 0,inactive: 0,inactive: 0,inactive: 0,inactive: 0,inactive: 0
